Reference: paper PMC12677912
No constants are given. Whether binding was seen depends on the method and setting. In cells and extracts the contact can be indirect. These calls come from enrichment with a bait or labelling near it, and not all partners need be listed.

Amino acid sequences for entries named in this document (tags omitted).
UniProt Q96QT6: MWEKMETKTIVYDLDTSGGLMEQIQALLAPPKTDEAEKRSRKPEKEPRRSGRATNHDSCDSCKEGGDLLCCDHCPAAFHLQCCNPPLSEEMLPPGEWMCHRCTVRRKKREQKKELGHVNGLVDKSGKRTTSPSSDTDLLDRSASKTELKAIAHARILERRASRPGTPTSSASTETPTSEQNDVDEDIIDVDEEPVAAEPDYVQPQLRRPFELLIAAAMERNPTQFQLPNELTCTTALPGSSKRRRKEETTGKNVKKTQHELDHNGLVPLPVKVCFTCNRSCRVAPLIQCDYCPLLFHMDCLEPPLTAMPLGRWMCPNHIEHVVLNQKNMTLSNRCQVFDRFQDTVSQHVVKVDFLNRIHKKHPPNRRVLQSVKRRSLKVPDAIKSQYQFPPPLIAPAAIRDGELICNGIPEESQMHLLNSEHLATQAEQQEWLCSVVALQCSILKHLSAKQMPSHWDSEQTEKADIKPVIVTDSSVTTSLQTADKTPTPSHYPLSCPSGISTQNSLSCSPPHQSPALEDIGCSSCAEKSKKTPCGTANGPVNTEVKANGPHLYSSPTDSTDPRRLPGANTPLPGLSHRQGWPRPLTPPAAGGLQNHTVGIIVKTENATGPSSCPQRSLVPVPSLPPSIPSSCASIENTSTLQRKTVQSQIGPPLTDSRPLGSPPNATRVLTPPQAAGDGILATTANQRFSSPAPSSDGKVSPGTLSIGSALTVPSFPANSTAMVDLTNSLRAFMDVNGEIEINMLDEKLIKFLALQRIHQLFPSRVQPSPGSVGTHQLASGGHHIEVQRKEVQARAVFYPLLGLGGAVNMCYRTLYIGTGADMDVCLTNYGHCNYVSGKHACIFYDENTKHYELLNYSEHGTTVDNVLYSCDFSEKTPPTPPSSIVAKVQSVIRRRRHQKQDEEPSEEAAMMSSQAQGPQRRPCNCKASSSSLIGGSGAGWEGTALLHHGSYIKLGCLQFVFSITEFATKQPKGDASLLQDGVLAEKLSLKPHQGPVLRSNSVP
UniProt Q96BD5: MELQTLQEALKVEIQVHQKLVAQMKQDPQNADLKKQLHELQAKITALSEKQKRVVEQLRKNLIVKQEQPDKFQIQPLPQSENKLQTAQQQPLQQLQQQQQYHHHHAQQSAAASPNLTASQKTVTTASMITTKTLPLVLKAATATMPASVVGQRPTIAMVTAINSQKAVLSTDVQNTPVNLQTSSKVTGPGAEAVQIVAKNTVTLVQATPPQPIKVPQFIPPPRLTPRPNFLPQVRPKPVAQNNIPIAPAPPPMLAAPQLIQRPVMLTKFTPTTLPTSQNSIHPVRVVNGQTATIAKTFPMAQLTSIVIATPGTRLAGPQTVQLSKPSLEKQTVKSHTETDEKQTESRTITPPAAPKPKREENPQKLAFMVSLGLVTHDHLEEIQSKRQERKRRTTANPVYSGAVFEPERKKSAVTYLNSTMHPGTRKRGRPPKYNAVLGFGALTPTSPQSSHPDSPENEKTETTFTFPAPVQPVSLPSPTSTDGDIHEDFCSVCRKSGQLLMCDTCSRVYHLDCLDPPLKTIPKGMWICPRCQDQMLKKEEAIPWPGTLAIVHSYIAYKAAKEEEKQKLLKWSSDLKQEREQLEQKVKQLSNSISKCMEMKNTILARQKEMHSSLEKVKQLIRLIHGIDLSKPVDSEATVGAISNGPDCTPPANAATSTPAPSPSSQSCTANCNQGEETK
UniProt Q9P0L2: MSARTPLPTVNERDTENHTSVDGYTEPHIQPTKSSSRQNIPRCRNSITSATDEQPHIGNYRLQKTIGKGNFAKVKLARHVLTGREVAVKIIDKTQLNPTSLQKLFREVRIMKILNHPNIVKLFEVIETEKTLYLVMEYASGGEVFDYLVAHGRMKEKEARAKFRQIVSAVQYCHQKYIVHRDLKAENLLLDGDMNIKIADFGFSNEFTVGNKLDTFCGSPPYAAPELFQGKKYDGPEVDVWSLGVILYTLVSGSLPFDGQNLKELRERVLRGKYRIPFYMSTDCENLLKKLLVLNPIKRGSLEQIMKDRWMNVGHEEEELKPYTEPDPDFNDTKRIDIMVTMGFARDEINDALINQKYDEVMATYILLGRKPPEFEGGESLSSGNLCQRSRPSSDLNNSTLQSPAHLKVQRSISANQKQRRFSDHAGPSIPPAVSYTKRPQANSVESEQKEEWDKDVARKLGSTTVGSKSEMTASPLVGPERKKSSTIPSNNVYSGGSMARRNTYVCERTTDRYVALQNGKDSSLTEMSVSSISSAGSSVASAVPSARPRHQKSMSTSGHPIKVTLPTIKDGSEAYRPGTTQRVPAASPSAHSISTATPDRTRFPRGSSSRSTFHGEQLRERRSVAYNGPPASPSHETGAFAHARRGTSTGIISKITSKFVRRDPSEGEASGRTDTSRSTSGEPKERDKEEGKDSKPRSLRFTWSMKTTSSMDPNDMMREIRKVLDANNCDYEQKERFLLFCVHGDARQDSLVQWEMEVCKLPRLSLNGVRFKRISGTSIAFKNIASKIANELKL

T1: POU3F2 (human (endogenous in iPSC-derived NPCs)) (UniProt P20265)
T1 sequence: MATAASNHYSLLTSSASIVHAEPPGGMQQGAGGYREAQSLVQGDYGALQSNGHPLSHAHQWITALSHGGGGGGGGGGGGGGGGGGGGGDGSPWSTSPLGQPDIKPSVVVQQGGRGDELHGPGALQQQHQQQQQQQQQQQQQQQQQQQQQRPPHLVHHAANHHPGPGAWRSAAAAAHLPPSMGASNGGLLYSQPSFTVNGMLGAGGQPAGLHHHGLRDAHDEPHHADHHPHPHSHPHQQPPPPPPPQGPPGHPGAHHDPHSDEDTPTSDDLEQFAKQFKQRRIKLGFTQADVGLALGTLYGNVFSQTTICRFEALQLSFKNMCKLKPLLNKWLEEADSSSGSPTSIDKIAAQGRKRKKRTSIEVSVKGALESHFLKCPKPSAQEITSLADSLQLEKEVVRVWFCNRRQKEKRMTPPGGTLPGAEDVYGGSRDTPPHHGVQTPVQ

B1: activity dependent neuroprotector homeobox (ADNP) (protein, UniProt Q9H2P0 1-1102)
chain: MFQLPVNNLGSLRKARKTVKKILSDIGLEYCKEHIEDFKQFEPNDFYLKNTTWEDVGLWDPSLTKNQDYRTKPFCCSACPFSSKFFSAYKSHFRNVHSEDFENRILLNCPYCTFNADKKTLETHIKIFHAPNASAPSSSLSTFKDKNKNDGLKPKQADSVEQAVYYCKKCTYRDPLYEIVRKHIYREHFQHVAAPYIAKAGEKSLNGAVPLGSNAREESSIHCKRCLFMPKSYEALVQHVIEDHERIGYQVTAMIGHTNVVVPRSKPLMLIAPKPQDKKSMGLPPRIGSLASGNVRSLPSQQMVNRLSIPKPNLNSTGVNMMSSVHLQQNNYGVKSVGQGYSVGQSMRLGLGGNAPVSIPQQSQSVKQLLPSGNGRSYGLGSEQRSQAPARYSLQSANASSLSSGQLKSPSLSQSQASRVLGQSSSKPAAAATGPPPGNTSSTQKWKICTICNELFPENVYSVHFEKEHKAEKVPAVANYIMKIHNFTSKCLYCNRYLPTDTLLNHMLIHGLSCPYCRSTFNDVEKMAAHMRMVHIDEEMGPKTDSTLSFDLTLQQGSHTNIHLLVTTYNLRDAPAESVAYHAQNNPPVPPKPQPKVQEKADIPVKSSPQAAVPYKKDVGKTLCPLCFSILKGPISDALAHHLRERHQVIQTVHPVEKKLTYKCIHCLGVYTSNMTASTITLHLVHCRGVGKTQNGQDKTNAPSRLNQSPSLAPVKRTYEQMEFPLLKKRKLDDDSDSPSFFEEKPEEPVVLALDPKGHEDDSYEARKSFLTKYFNKQPYPTRREIEKLAASLWLWKSDIASHFSNKRKKCVRDCEKYKPGVLLGFNMKELNKVKHEMDFDAEWLFENHDEKDSRVNASKTADKKLNLGKEDDSSSDSFENLEEESNESGSPFDPVFEVEPKISNDNPEEHVLKVIPEDASESEEKLDQKEDGSKYETIHLTEEPTKLMHNASDSEVDQDDVVEWKDGASPSESGPGSQQVSDFEDNTCEMKPGTWSDESSQSEDARSSKPAAKKKATMQGDREQLKWKNSSYGKVEGFWSKDQSQWKNASENDERLSNPQIEWQNSTIDSEDGEQFDNMTDGVAEPMHGSLAGVKLSSQQA
B2: DCX (protein, UniProt O43602 1-365)
chain: MELDFGHFDERDKTSRNMRGSRMNGLPSPTHSAHCSFYRTRTLQALSNEKKAKKVRFYRNGDRYFKGIVYAVSSDRFRSFDALLADLTRSLSDNINLPQGVRYIYTIDGSRKIGSMDELEEGESYVCSSDNFFKKVEYTKNVNPNWSVNVKTSANMKAPQSLASSNSAQARENKDFVRPKLVTIIRSGVKPRKAVRVLLNKKTAHSFEQVLTDITEAIKLETGVVKKLYTLDGKQVTCLHDFFGDDDVFIACGPEKFRYAQDDFSLDENECRVMKGNPSATAGPKASPTPQKTSAKSPGPMRRSKSPADSGNDQDANGTSSSQLSTPKSKQSPISTPTSPGSLRKHKDLYLPLSLDDSDSLGDSM

Target: T1, POU3F2 (human (endogenous in iPSC-derived NPCs))
Test: affinity purification with mass spectrometry; immunoprecipitation of endogenous POU3F2 from pre-cleared 1% CHAPSO lysates of POU3F2^WT NPCs with anti-POU3F2 antibody cross-linked (BS3) to Protein G Dynabeads, overnight at 4°C, TMT-MS; POU3F2^MUT NPCs in parallel as negative controls

| binding | Molecule |
| --- | --- |
| binds | PHF12 (from UniProt Q96QT6 1-1004) |
| binds | PHF21A (from UniProt Q96BD5 1-680) |
| binds | MARK1 (from UniProt Q9P0L2 1-795) |
| binds | B1 |
| binds | B2 |
